Test results from the supplement of paper PMC12823440, “Inhibitors supercharge kinase turnover through native proteolytic circuits” (Nature, 2025).
Structures can show the parent of a compound that is named as a salt. This is one part of the list. Hit calls seldom repeat between salt and free forms of one compound.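 Kinases were expressed as nanoluciferase fusions in K562 cells and luminescence was read every 4 h between 2 and 18 h as percent of control, DMSO set to 100% and a positive control to 0%. A time point counts as decreased when the signal drops significantly (2 sigma). The hit call is the authors' own, does not follow from the count of time points alone, and its rule is not shown.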

Amino acid sequences for entries named in this document (tags omitted). A change or cut given only in a name is not applied to a line headed by its entry.
UniProt P48729: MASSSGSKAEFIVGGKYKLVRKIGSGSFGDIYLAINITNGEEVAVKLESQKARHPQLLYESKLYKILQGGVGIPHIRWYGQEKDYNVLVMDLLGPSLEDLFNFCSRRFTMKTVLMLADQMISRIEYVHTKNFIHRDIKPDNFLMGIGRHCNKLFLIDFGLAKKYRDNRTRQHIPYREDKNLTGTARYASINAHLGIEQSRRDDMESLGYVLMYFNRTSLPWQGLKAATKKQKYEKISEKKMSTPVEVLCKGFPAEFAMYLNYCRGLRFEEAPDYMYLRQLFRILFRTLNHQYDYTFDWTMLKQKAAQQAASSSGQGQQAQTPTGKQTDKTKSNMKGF
UniProt Q08345: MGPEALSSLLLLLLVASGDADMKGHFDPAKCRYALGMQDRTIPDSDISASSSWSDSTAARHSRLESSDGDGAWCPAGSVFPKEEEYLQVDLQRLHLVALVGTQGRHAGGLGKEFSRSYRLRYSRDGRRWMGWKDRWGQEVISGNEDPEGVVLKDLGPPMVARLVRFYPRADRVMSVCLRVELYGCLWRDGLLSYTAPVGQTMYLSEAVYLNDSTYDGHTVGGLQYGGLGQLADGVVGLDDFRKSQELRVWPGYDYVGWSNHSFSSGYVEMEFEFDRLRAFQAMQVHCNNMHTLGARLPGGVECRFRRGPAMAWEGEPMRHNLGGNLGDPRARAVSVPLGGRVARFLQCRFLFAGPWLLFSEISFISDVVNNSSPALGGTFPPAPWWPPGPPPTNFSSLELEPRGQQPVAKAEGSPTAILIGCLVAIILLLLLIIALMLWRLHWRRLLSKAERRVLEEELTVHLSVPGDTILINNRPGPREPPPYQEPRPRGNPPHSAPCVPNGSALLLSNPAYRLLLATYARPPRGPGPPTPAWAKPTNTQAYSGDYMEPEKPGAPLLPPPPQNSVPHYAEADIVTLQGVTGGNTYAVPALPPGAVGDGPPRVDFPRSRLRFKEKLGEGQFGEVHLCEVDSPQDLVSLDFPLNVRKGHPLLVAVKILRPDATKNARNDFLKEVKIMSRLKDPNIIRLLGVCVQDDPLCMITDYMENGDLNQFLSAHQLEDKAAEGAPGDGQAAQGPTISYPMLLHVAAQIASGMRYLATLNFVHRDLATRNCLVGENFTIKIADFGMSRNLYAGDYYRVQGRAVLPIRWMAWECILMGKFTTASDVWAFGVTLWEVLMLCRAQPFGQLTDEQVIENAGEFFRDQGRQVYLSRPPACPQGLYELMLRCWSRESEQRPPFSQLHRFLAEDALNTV
UniProt Q9Y463, whole entry, looked up: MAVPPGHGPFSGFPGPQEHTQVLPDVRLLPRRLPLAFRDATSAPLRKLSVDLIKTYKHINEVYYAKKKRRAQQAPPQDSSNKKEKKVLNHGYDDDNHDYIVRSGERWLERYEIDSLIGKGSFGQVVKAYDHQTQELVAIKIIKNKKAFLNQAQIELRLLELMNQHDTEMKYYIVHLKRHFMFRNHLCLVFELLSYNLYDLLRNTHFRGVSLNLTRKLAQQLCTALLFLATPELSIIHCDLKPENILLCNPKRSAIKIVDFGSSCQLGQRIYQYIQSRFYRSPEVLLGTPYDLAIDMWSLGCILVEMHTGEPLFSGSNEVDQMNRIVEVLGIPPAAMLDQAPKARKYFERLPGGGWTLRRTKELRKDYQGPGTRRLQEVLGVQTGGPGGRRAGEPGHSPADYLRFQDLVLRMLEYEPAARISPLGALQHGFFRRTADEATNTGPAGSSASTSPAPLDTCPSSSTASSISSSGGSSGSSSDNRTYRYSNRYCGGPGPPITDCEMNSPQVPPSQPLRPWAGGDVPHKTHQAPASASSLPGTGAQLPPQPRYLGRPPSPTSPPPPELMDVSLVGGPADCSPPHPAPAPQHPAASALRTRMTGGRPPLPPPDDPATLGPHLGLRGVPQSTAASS
UniProt Q92630: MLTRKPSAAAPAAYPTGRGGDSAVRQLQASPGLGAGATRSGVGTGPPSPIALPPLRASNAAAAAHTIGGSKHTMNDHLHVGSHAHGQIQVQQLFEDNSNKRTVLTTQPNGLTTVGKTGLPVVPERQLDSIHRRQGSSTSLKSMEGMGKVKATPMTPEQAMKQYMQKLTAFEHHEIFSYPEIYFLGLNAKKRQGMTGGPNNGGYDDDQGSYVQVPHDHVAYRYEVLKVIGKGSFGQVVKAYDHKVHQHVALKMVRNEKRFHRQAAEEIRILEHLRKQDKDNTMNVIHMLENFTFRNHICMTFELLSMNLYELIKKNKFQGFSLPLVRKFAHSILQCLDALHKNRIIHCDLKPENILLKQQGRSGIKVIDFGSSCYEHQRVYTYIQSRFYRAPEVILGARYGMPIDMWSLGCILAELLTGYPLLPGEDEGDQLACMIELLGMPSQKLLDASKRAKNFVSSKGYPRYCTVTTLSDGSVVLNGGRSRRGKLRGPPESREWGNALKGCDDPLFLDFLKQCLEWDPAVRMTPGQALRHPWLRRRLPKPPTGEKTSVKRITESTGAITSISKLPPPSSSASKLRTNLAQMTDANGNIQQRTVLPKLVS
UniProt Q15303, whole entry R711C: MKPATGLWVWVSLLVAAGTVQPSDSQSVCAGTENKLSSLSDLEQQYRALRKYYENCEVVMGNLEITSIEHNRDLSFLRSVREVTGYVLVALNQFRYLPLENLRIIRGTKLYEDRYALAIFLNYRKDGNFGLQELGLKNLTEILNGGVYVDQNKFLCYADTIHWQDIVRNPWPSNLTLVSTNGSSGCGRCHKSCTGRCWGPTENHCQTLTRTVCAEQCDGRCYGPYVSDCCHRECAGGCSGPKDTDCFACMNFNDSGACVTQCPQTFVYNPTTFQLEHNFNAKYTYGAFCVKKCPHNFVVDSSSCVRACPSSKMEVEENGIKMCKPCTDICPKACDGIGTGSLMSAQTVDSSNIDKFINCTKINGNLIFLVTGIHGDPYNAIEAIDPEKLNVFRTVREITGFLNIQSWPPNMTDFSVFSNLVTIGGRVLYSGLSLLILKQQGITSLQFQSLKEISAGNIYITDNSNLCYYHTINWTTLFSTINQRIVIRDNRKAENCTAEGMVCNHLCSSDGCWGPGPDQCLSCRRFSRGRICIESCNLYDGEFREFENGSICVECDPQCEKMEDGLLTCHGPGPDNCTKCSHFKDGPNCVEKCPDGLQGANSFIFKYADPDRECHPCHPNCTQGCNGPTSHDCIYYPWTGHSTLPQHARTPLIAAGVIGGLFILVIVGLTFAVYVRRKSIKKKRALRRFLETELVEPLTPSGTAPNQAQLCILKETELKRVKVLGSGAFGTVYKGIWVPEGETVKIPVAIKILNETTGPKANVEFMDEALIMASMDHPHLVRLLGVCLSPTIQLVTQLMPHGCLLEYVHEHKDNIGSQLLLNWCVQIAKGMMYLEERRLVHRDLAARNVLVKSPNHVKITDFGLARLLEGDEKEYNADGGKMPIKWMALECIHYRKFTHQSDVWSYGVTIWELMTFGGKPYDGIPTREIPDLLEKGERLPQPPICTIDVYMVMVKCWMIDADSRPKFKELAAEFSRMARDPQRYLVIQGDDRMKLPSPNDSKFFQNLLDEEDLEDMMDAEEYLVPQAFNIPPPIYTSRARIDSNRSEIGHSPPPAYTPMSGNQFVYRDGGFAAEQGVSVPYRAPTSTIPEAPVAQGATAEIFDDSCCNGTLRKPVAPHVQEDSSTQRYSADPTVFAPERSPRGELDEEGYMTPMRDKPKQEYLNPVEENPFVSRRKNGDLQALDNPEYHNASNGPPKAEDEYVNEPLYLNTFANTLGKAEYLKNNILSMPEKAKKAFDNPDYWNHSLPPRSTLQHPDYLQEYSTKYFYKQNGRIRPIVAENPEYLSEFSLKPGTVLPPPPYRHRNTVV
UniProt O75460: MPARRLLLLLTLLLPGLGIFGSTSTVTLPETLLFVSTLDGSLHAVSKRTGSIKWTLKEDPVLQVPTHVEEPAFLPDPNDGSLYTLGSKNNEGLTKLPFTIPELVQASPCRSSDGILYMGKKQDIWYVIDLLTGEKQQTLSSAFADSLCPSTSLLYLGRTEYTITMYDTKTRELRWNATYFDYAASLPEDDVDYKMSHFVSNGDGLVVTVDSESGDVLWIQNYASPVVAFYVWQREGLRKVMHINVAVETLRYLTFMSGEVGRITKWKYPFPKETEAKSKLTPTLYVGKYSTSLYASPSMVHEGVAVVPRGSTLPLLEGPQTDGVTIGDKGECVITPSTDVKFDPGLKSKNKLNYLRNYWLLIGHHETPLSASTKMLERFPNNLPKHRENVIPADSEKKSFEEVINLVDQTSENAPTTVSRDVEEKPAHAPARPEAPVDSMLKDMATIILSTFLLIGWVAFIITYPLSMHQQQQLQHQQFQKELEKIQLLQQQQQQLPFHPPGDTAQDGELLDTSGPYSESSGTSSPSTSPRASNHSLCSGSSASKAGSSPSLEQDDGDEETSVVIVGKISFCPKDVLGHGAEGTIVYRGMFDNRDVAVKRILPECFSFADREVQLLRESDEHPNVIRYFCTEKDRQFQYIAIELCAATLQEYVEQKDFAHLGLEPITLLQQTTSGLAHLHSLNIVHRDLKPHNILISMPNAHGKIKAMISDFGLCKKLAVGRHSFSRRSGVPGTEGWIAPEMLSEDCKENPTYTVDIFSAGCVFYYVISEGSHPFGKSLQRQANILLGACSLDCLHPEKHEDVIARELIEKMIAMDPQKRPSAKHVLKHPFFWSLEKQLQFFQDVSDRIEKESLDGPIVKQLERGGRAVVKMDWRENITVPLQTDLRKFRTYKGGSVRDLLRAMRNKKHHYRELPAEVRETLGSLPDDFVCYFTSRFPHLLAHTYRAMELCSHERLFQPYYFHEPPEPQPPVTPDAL
UniProt P11362, whole entry, looked up: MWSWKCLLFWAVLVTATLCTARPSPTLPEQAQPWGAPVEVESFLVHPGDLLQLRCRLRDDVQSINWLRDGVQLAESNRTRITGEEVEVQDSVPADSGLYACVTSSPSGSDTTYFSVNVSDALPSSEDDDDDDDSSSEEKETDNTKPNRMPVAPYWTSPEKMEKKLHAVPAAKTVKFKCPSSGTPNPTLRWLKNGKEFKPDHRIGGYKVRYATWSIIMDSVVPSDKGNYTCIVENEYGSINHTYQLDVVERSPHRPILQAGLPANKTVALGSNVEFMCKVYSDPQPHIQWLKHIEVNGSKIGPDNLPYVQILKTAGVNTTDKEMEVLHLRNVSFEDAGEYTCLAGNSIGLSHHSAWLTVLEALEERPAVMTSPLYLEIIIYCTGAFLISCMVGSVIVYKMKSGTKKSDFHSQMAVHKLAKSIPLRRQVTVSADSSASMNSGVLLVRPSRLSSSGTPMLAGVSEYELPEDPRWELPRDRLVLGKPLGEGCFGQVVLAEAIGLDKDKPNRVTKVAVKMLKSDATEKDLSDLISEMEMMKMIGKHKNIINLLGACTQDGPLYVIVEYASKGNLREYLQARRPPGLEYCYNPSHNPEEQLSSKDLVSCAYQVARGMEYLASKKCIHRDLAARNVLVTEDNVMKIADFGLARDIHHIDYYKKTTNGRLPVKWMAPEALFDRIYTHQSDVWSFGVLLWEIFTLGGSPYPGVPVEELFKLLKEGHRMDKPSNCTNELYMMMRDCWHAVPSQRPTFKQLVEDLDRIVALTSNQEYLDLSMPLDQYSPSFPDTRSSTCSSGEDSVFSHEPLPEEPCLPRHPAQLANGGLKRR
UniProt P22607, whole entry, looked up: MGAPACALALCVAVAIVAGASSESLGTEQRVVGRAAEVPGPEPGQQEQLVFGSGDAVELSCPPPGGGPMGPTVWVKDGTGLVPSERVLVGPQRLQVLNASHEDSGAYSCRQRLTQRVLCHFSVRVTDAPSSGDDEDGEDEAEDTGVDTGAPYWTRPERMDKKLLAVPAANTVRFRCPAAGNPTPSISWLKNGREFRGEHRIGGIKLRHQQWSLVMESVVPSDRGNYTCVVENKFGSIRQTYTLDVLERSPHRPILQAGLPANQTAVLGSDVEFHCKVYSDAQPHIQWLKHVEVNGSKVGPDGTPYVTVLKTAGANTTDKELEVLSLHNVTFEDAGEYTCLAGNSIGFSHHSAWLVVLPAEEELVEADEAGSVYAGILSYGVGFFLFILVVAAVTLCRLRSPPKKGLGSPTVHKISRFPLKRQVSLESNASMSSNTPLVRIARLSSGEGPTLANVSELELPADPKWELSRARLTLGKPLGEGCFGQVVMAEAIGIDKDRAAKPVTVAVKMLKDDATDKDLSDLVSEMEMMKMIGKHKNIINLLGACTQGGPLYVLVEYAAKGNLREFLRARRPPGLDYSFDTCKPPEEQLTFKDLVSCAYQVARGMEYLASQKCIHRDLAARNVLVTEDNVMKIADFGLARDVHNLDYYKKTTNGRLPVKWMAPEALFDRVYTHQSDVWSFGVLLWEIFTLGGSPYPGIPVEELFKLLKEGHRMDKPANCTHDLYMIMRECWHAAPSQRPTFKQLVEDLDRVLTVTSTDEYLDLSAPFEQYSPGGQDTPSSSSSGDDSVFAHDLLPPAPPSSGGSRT

Tests used:
Assay in all cases: number of time points (of 5) at which kinase-Nluc abundance scored as decreased, DMSO-normalised (count); higher = more persistent destabilization
Settings in all cases: K562; 2-18 h
CSNK1A1 = CSNK1A1 (UniProt P48729)
CSNK1D = CSNK1D (UniProt P48730)
DDR1 = DDR1 (UniProt Q08345)
DYRK1B = DYRK1B (UniProt Q9Y463)
DYRK2 = DYRK2 (UniProt Q92630)
EGFR = EGFR (UniProt P00533)
EGFR_G719S = EGFR_G719S (UniProt P00533)
EGFR_G719S_T790M = EGFR_G719S_T790M (UniProt P00533)
EGFR_L718V = EGFR_L718V (UniProt P00533)
EGFR_L858R = EGFR_L858R (UniProt P00533)
EGFR_L861Q = EGFR_L861Q (UniProt P00533)
EGFR_T790M = EGFR_T790M (UniProt P00533)
EPHA2 = EPHA2 (UniProt P29317)
ERBB3 = ERBB3 (UniProt P21860)
[1] = target: ERBB4_R711C (clone: ERBB4_mut) (UniProt Q15303)
ERN1 = ERN1 (UniProt O75460)
FGFR1 = FGFR1 (UniProt P11362)
FGFR2 = FGFR2 (UniProt P21802)
FGFR3 = FGFR3 (UniProt P22607)
FGR = FGR (UniProt P09769)

Measured: number of time points

Nc1nc(Nc2ccc3c(c2)CC[C@@H](N2CCCC2)CC3)nn1-c1cc2c(nn1)-c1ccccc1CCC2 [Bemcentinib] (2.5 µM)
0: all assays above

CS(=O)(=O)c1cccc(CNc2nc(Nc3ccc4c(c3)CCC(=O)N4)ncc2C(F)(F)F)c1 (10 µM)
0: all assays above

Nc1ccc(O)c(C(=O)O)c1 [5-Aminosalicylic Acid] (10 µM)
0: all assays above

CC(C)(Oc1ccc(Cl)cc1)C(=O)Nc1ccc(OCc2ccc(C#N)cc2)cc1 [AMPK activator 4] (10 µM)
0: all assays above

COc1c(Nc2ncc(Cl)c(N[C@H]3[C@@H](C(N)=O)[C@@H]4C=C[C@H]3C4)n2)ccc2c1CC[C@@H](N1CCOCC1)CC2 (10 µM)
0: all assays above

C=CC(=O)Nc1cccc(Oc2nc(Nc3ccc(N4CCN(C)CC4)cc3OC)ncc2Cl)c1 (10 µM)
0: all assays above

CC(=O)O[C@@H]1[C@@H](OC(C)=O)[C@@H](O)[C@H](Oc2c(-c3ccc(O)cc3)oc3cc(O)cc(O)c3c2=O)O[C@H]1C (10 µM)
0: all assays above

Three compounds out of the list, sorted by molecular weight, low to high:
Nc1ccc(O)c(C(=O)O)c1 [5-Aminosalicylic Acid] (10 µM)
0: all assays above

CC(C)(Oc1ccc(Cl)cc1)C(=O)Nc1ccc(OCc2ccc(C#N)cc2)cc1 [AMPK activator 4] (10 µM)
0: all assays above

COc1c(Nc2ncc(Cl)c(N[C@H]3[C@@H](C(N)=O)[C@@H]4C=C[C@H]3C4)n2)ccc2c1CC[C@@H](N1CCOCC1)CC2 (10 µM)
0: all assays above

Next part:

CC(C)n1c(CO)nc2c(F)cc(-c3nc(Nc4ccc(CN5CCNCC5)cn4)ncc3F)cc21 (10 µM)
4: DYRK2 | ERBB3 | [1]
0: CSNK1D | FGFR1 | FGFR3 | FGR
2: DYRK1B | ERN1
1: CSNK1A1 | EGFR | EGFR_L718V | EPHA2
3: all other assays above

CCC(F)(F)c1cc(N2CCC(S(C)(=O)=O)CC2)nc2sc(C(N)=O)c(N)c12 (10 µM)
0: all assays above

CC(C)(C)S(=O)(=O)c1cc2c(Nc3ccc4scnc4c3)ncnc2cc1OCCOP(=O)(O)O (2 µM)
0: all assays above

Cc1cncc2cccc(S(=O)(=O)N3CCCNC[C@@H]3C)c12 [H-1152 (dihydrochloride)] (10 µM)
0: all assays above

Nc1[nH]nc2nnc(-c3c(-c4ccccc4)nn4ccccc34)cc12 (10 µM)
0: all assays above

C[C@@H]1CN(Cc2ccc(F)cc2)[C@@H](C)CN1C(=O)c1cc2c(C(=O)C(=O)N(C)C)cn(C)c2cc1Cl [Talmapimod] (10 µM)
0: all assays above

COc1cc2nnc(C(N)=O)c(Nc3ccc(C)cc3F)c2cc1N1CCN(CCO)CC1 (2.5 µM)
0: all assays above

NC(=O)c1sc2c([N+](=O)[O-])cc(C(F)(F)F)cc2[n+]1[O-] [Cyclapolin 9] (10 µM)
0: all assays above

NC(=O)c1ccccc1Nc1ccnc(Nc2cccc(O)c2)n1 (10 µM)
3: ERBB3 | FGFR2
4: DDR1 | DYRK2 | [1]
1: EGFR_L858R
2: EGFR_L861Q
0: all other assays above

Cc1nc2c(NCc3cccc(S(C)(=O)=O)c3)nccn2c1-c1ccc(O)c(F)c1 (10 µM)
0: all assays above

CC(C)c1cc2c(c(O)c1O)[C@@]13CCCC(C)(C)[C@@H]1C[C@@H]2OC3=O [Carnosol] (2.5 µM)
0: all assays above

COc1cc(N2CCC(O)CC2)ccc1Nc1nc(Nc2ccccc2S(=O)(=O)C(C)C)c2[nH]cnc2n1 (10 µM)
0: all assays above

CC(C1CC1)n1cnc2c(NCc3cccc(C(F)(F)F)c3)nc(NCCN(C)C)nc21 (stereo not given) (10 µM)
0: all assays above

CN1CCN(c2ccc(-c3ccncc3-c3cc(F)c(O)c(F)c3)cc2)CC1 (10 µM)
0: all assays above

Fc1ccc(-c2nc3n(c2-c2ccncc2)CCS3)cc1 (10 µM)
0: all assays above

CCOc1cc(N2CCC(O)CC2)ccc1Nc1ncc2c(n1)N(C1CCCC1)CCC(=O)N2C (2.5 µM)
0: all assays above

CC1=C(C#N)C(c2ccc3[nH]nc(C)c3c2)C(C#N)=C(C)N1 (10 µM)
0: all assays above

CS[C@@]1(C(=O)Nc2ccc3[nH]nc(-c4ccc(OC(C)C)nc4)c3c2)CCN(CC(=O)N2CC=C(c3ccc(-c4ncn(C)n4)cc3)CC2)C1 (2.5 µM)
0: all assays above

CN(C[C@@H]1COCCO1)S(=O)(=O)Nc1ccc2ccc3ncc(-c4cnn(C)c4)cc3c(=O)c2c1 (2.5 µM)
0: all assays above

CN(C)c1cc[n+](Cc2ccc(OCCOc3ccc(C[n+]4ccc(N(C)C)cc4)cc3)cc2)cc1 (10 µM)
0: all assays above

N#CC(=C(/N)Sc1ccccc1N)/C(C#N)=C(\N)Sc1ccccc1N (10 µM)
0: all assays above

CNCc1ccccc1Sc1cccc2ccccc12 [IFN alpha-IFNAR-IN-1 (hydrochloride)] (10 µM)
3: [1]
2: DYRK2 | EGFR_G719S | EGFR_G719S_T790M | EGFR_L861Q | ERBB3 | FGFR2
1: DDR1 | DYRK1B | EGFR_L718V | EGFR_L858R
0: all other assays above

CCC[C@H](C)Oc1nc(N)c2[nH]c(=O)n(CCCCCN3CCCCC3)c2n1 (10 µM)
0: all assays above

CC1=CC(=O)C(C(C)C)=C/C1=N/OC(=O)c1ccccc1C [Poloxin] (2.5 µM)
0: all assays above

Nc1ccc(C(=O)Nc2cccc(-c3nc(N4CCOCC4)c4oc5ncccc5c4n3)c2)cn1 (10 µM)
5: DYRK2
0: all other assays above

O=C1CCC(N2C(=O)c3cccc(OCCCCCOc4ccc(CC(=O)Nc5cc(C6CCC6)[nH]n5)cc4)c3C2=O)C(=O)N1 (stereo not given) [PROTAC CDK9 Degrader-1] (10 µM)
1: CSNK1A1
2: EGFR_L861Q | ERBB3
3: [1]
0: all other assays above

CC(C)(CCCCCC(O)CCCCCC(C)(C)C(=O)O)C(=O)O [Bempedoic acid] (10 µM)
0: all assays above

O=C(Nc1ccc(F)cc1F)C(NC(=S)Nc1cc(C(F)(F)F)cc(C(F)(F)F)c1)c1ccccc1 (racemic) (2.5 µM)
0: all assays above

CC1(C)C=Cc2c(ccc(C(=O)/C=C/c3ccc(O)cc3)c2O)O1 [4-Hydroxylonchocarpin] (10 µM)
0: all assays above

CNc1cc2c(Nc3cccc(Br)c3)ncnc2cn1 (10 µM)
1: ERN1
0: all other assays above

O=C(O)c1c[nH]c2cc(Cl)c(-c3ccc(C4(O)CCC4)cc3)cc12 (10 µM)
0: all assays above

CO/N=C1/C(c2c(O)[nH]c3cc(Cl)c(Cl)cc23)=Nc2ccccc21 (10 µM)
0: all assays above

Cc1ccc2c(NS(=O)(=O)c3ccccc3Cl)cccc2c1Oc1ncccc1-c1ccnc(N[C@H]2CCCNC2)n1 (2.5 µM)
0: all assays above

CC(C)=CCC[C@](C)(O[C@@H]1O[C@H](CO[C@@H]2O[C@H](CO)[C@@H](O)[C@H](O)[C@H]2O)[C@@H](O)[C@H](O)[C@H]1O)[C@H]1CC[C@]2(C)[C@@H]1[C@H](O)C[C@@H]1[C@@]3(C)CC[C@H](O[C@@H]4O[C@H](CO)[C@@H](O)[C@H](O)[C@H]4O[C@@H]4O[C@H](CO)[C@@H](O)[C@H](O)[C@H]4O)C(C)(C)[C@@H]3CC[C@]12C [Ginsenoside Rb1] (10 µM)
0: all assays above

C=CC(=O)Nc1cc(Nc2nccc(-c3cn(C)c4ccccc34)n2)c(OCC(F)(F)F)nc1N(C)CCNC [AST5902  (trimesylate)] (2.5 µM)
3: DDR1
4: FGFR3
0: all other assays above

CC(ONC(=O)c1cc(C(F)(F)F)cc(C(F)(F)F)c1)C(=O)Nc1ccc(Cl)cc1 (stereo not given) (2.5 µM)
5: CSNK1A1 | EGFR_G719S
0: all other assays above

CN(C)C(=O)c1cc2cnc(Nc3ccc(N4CCN(CCCCNC(=O)COc5cccc6c5C(=O)N(C5CCC(=O)NC5=O)C6=O)CC4)cn3)nc2n1C1CCCC1 (stereo not given) (10 µM)
0: all assays above

O=S(=O)(c1ccc(O)cc1O)N1Cc2cc(O)cc(O)c2C1 (10 µM)
0: all assays above

C=CC(=O)N1CCC(c2ccc(C(N)=O)c(-c3ccc(Oc4ccccc4)cc3)n2)CC1 [Orelabrutinib] (2.5 µM)
0: all assays above

CN1CCC(Nc2ccc(C(=O)Nc3cc(-c4ccc5c(c4)OCO5)[nH]n3)cc2)CC1 (10 µM)
3: [1]
4: DYRK2
1: DDR1
0: all other assays above
